No constants are given. Whether binding was seen depends on the method and setting. A result given as binding can be weak or reduced; the word gives no strength.

Assay [1] concerns the target TNFR2. Kind of assay: ELISA on coated TNFR2, positive control of the TNFR superfamily cross-binding test; lower panel.
Assay [2] concerns the target TNFR2. As to the kind of experiment: ELISA on coated TNFR2, positive control of the TNFR superfamily cross-binding test; upper panel. (In general: An ELISA detects its analyte on a solid surface through an enzyme-linked reagent.)

B1: humanized antibody hu3-E (Hu3-H3/Hu3-L1) (antibody, human IgG1, kappa, V domains shown)
VH: QIQLVQSGAEVKKPGASVKVSCKASGYTFTTYGMSWVRQAPGQGLEWMGWIHTYSGVPTYADDFKGRFAFTLDTSTSTAYMELRSLRSDDTAVYYCARGLYGVDYWGQGTLVTVSS
VL: EIVMTQSPATLSLSPGERATLSCKASENVVTYVSWYQQKPGQAPRLLIYGASNRYTGIPARFSGSGSATDFTLTISSLQPEDFAVYYCGQSYTYPYTFGQGTKLEIKR
Turning to B1, the binding result in the assay with TNFR2 [1] is recorded as “binds”.

B2: humanized antibody hu32-C (Hu32-H1/Hu32-L3) (antibody, human IgG1, kappa, V domains shown)
VH: QVTLKESGPTLVKPTQTLTLTCTFSGFSLSTLGMGVGWIRQPPGKALEWLAHIWWDADKYYNPALKSRLTITKDTSKNQVVLTMTNMDPVDTATYYCARMTGTRYFDVWGQGTTVTVSS
VL: DIQMTQSPSSLSASVGDRVTITCKASQNINKFIAWYQQKPGKVPKLLIHYTSTLQPGVPSRFSGSGSGSDYTLTISSLQPEDVATYYCLQYGVLWTFGGGTKVEIKR
Turning to B2, the binding result with TNFR2 [2] was “binds”.

These data come from patent publication US11912777.
